Test results taken from patent US20250368745A1.
Results are given in words; binding and its absence hold for the method and conditions named. Some binding calls cover weakened binding; strength is not graded here.

Target: hypo-IL-18 (IL-18 tethered to IL-18BP by a flexible linker with TEV site, 6xHis) (human)
Test: BLI

B1: SA07a (antibody, human IgG1, V domains shown)
VH: EVQLQQSGPELVKPGASVKISCKASGYTFTDYYMNWVKQSHGKSLEWIGDINPNNGGTSYNQKFKGKATLTVDKSSNTAYMELRSLTSEDSAVYYCAREGVYSNYGGYFDYWGQGTTLTVSS
VL: QIVLTQSPALMSASPGEKVTMTCSASSSVSYMYWYQQKPRSSPKPWIYLTSNLASGVPARFSGSGSGTSYSLTISSMEAEDAATYYCQQWSSNPPTFGSGTKLEIK
In the case of B1, the binding is reported as “binds”.
